Results published in patent publication US12103946B2, “Steroid compounds as Treg modulators and uses thereof” (New York University, priority 2018, dated 2024).
“Also recorded” adds a separate entry of the source. Read-outs that look alike come from different tables or passages of the source. At least one structure is not confirmed: it was looked up by name or label, or the drawing left a doubt.

Assays:
[1] = test system: naïve CD4+ T cells (Treg differentiation, FoxP3); experiment: In vitro Treg differentiation, FoxP3 staining by flow cytometry; format: cell-based, mouse; details: for Treg differentiation (FoxP3 expression): bile acids 20 μM, 3 days, anti-CD3/28, IL-2; for Treg differentiation in the presence of mitoQ: mitoQ 0.5 μM, TGF-β 0.05 ng/ml, 72 h
Text: To determine if bile acids influence T cell functions, the present inventors performed a small-scale screening assay with a small molecule library comprising secondary bile acids with in vitro Treg differentiation as a read-out. Naïve CD4^+ T lymphocytes were sorted from wild-type B6 mice and cultured in the presence of a TCR stimulus, interleukin 2 (IL-2), and different amounts of TGFβ (optimized for Treg differentiation). Treg differentiation was quantified at the single cell level by staining with an antibody specific for FoxP3, followed by flow cytometry analysis. Retinoic acid, a known enhancer of Treg differentiation, was used as a positive control.
(§1) Our screen included both primary bile acids, synthesized by the host, and secondary bile acids, produced by bacterial modification of primary bile acids (FIG. 5). Naïve CD4^+ T cells were isolated from wild-type C57BL/6J (B6) mice and cultured with bile acids under Th17 differentiation conditions and, as a counter-screen, Treg differentiation conditions (FIG. 6).
In Vitro T Cell Culture. Naïve CD4^+ (CD62L^+ CD44^− CD25^− CD4^+) T cells were isolated from the spleens and the lymph nodes of mice of designated genotypes with FACS sorting. For certain experiments, naïve CD4^+ T cells were enriched using naïve CD4^+ T cell isolation kits (Miltenyi). Naïve CD4^+ T cells (40,000 cells) were cultured in a 96-well plate pre-coated with hamster IgG (MP Biomedicals) in T cell medium (RPMI, 10% fetal bovine serum, 25 mM glutamine, 55 μM 2-mercaptoethanol, 100 U/mL penicillin, […] streptomycin) supplemented with 0.25 μg/mL anti-CD3 (clone 145-2C11) and 1 μg/mL anti-CD28 (clone 37.51). For Th0 culture, T cells were cultured with the addition of 100 U/mL of IL-2 (PEPROTECH). For Th1 cell differentiation, T cells were cultured with the addition of 100 U/mL of IL-2, 10 μg/mL of anti-IL-4 (clone 11B11) and 10 ng/mL of IL-12 (PEPROTECH). For Th2 cell differentiation, T cells were cultured with the addition of 10 μg/mL of anti-IFNγ (clone XMG1.2) and 10 ng/mL of IL-4 (R&D Systems). For Th17 cell differentiation, T cells were cultured with the addition of 10 ng/mL of IL-6 (eBioscience) and 0.5 ng/mL of TGF-β (PEPROTECH). For Treg culture, T cells were cultured with the addition of 100 U/mL of IL-2 and various concentrations of TGF-β. […] Bile acids, retinoic acid (Sigma) or mitoQ (Focus Biomolecules), or mitoPQ (Sigma) were added either at 0 or 16 h time points. Compounds with low water solubility were sonicated before adding to the culture. Cells were harvested and assayed by flow cytometry on day 3. For ROS and mitochondrial membrane potential detection, cells cultured for 2 days were incubated with 5 μM of mitoSOX (ThermoFisher), 10 μM of DCFDA (Sigma) or 2 μM of JC-1 (ThermoFisher) for 30 min and assayed with flow cytometry.
Flow Cytometry. Cells harvested from in vitro culture or in vivo mice experiments were stimulated with 50 ng/mL PMA (Phorbol 12-myristate 13-acetate, Sigma) and 1 μM ionomycin (Sigma) in the presence of GolgiPlug (BD) for 4 h to determine cytokine expression. After stimulation, cells were stained with cell surface marker antibodies and LIVE/DEAD Fixable dye, Aqua, to exclude dead cells, fixed and permeabilized with a FoxP3/Transcription factor staining kit (eBioscience), followed by staining with cytokine- and/or transcription factor-specific antibodies. All flow cytometry analyses were performed on an LSR II flow cytometer (BD) and data were analyzed with FlowJo software (TreeStar).

[2] = test system: CD4+ effector T cells (Tconv); experiment: In vitro suppression assay; format: cell-based, mouse; details: vs DMSO-treated cells
[3] = test system: lamina propria CD4+ T cells (Th17, Treg); experiment: Anti-CD3 injection gut inflammation model, bile acid diet; format: in vivo, mouse; details: SFB-colonized B6 mice, 0.03% (w/w) diet
Description: Data are shown as the mean±standard deviation by unpaired t-test with 2-tailed p-value.
Cells were then analyzed by flow cytometry.

[4] = test system: CD4+ T cells (WT or CNS3 knockout); experiment: Seahorse oxygen consumption rate; format: cell-based, mouse; details: 20 μM, 48 h
FoxP3 promoter region = experiment: Chromatin immunoprecipitation on FoxP3 gene locus; format: cell-based, mouse; details: vs DMSO
FoxP3 mRNA = experiment: RT-qPCR for FoxP3 transcripts; format: cell-based, mouse; details: 20 μM
[5] = test system: naïve CD4+ T cells (Th1 or Th2 cells); experiment: In vitro Th1 and Th2 differentiation (IFN-γ, IL-4, T-bet, GATA3); format: cell-based, mouse; details: 20 μM, day 5
Description: (§2) In Vitro T Cell Culture. Naïve CD4^+ (CD62L^+ CD44^− CD25^− CD4^+) T cells were isolated from the spleens and the lymph nodes of mice of designated genotypes with FACS sorting. For certain experiments, naïve CD4^+ T cells were enriched using naïve CD4^+ T cell isolation kits (Miltenyi). Naïve CD4^+ T cells (40,000 cells) were cultured in a 96-well plate pre-coated with hamster IgG (MP Biomedicals) in T cell medium (RPMI, 10% fetal bovine serum, 25 mM glutamine, 55 μM 2-mercaptoethanol, 100 U/mL penicillin, […] streptomycin) supplemented with 0.25 μg/mL anti-CD3 (clone 145-2C11) and 1 μg/mL anti-CD28 (clone 37.51). For Th0 culture, T cells were cultured with the addition of 100 U/mL of IL-2 (PEPROTECH). For Th1 cell differentiation, T cells were cultured with the addition of 100 U/mL of IL-2, 10 μg/mL of anti-IL-4 (clone 11B11) and 10 ng/mL of IL-12 (PEPROTECH). For Th2 cell differentiation, T cells were cultured with the addition of 10 μg/mL of anti-IFNγ (clone XMG1.2) and 10 ng/mL of IL-4 (R&D Systems). For Th17 cell differentiation, T cells were cultured with the addition of 10 ng/mL of IL-6 (eBioscience) and 0.5 ng/mL of TGF-β (PEPROTECH). […]
(§3) Flow Cytometry. […] All flow cytometry analyses were performed on an LSR II flow cytometer (BD) and data were analyzed with FlowJo software (TreeStar).

[6] = test system: naïve CD4+ T cells (Th17 differentiation, IL-17a); experiment: In vitro Th17 differentiation, IL-17a staining by flow cytometry; format: cell-based, mouse; details: Th17 condition, 20 μM
Text: as §1
as §2, with “(PEPROTECH).” for “(PEPROTECH). For Th2 cell differentiation, T cells were cultured with the addition of 10 μg/mL of anti-IFNγ (clone XMG1.2) and 10 ng/mL of IL-4 (R&D Systems). For Th17 cell differentiation, T cells were cultured with the addition of 10 ng/mL of IL-6 (eBioscience) and 0.5 ng/mL of TGF-β (PEPROTECH).”
as §3

CD4+ T cells = experiment: TCR activation markers (CD25, CD69, Nur77, CD44); format: cell-based, mouse
Text: Representative FACS plots of CD4^+ T cells cultured for 3 days and stained intracellularly for FoxP3 (e). Quantification of FoxP3^+ and viable T cells after 3-day culture (f) (n=2/group). n, number of biologically independent samples. Data are representative of two independent experiments (b, d). Data in (c) are shown as the mean±standard deviation.

T cells = experiment: ROS, mitochondrial mass and membrane potential (mitoSOX, DCFDA, MitoTracker, JC-1); format: cell-based, mouse; details: 48 h
Description: Chromatin obtained from DMSO- and isoalloLCA-treated WT cells was immunoprecipitated with IgG, anti-H3K27Ac, anti-P300, or anti-H3K4me1 antibodies, followed by real-time PCR analysis (n=3/group). Primers targeting FoxP3 promoter (Pro), CNS1, CNS2 and CNS3 region and hsp90 promoter were used for qPCR quantification. Relative enrichment was calculated as fold change relative to the ChIP signal at the FoxP3 promoter of the DMSO-treated control. d and e, Flow cytometry and quantification of CD4^+ T cells stained intracellularly for FoxP3. […] Their mitochondrial and cytoplasmic ROS were measured by mitoSOX (h) and 2′,7′-dichlorofluorescein diacetate (DCFDA) (i), respectively. Total mitochondria mass was measured by MitoTracker (j) and the mitochondrial membrane potential measured by JC-1 dye (k). MFIs of different treatments were normalized as fold changes to those of DMSO control (n=3/group).
as §2

naïve CD4+ T cells = experiment: Cell proliferation assay (CFSE); format: cell-based, mouse; details: 3 days, vs DMSO
Description: Data are representative of two independent experiments (b, d).
Cell Proliferation Assay. Naïve CD4^+ T cells were labeled with 1 μM carboxyfluorescein succinimidyl ester (CFSE, BioLegend) and cultured for 3 days prior to FACS analysis.

## C[C@H](CCC(=O)O)[C@H]1CC[C@H]2[C@@H]3CC[C@H]4C[C@@H](O)CC[C@]4(C)[C@H]3CC[C@]12C [isoalloLCA, Isoallolithocholic acid]
[1]; 20 μM
  FoxP3 expression in CD4+ T cells with deletions in CNS1 and CNS2: up-regulated FoxP3
  FoxP3 expression in cRel-deficient cells: WT and cRel-deficient cells express similar levels of FoxP3
[1]; CNS3 knockout cells
  FoxP3 expression / Treg differentiation in cells lacking CNS3: cells lacking CNS3 failed to respond
[1]; TGFβ 0.01 ng/ml
  increase in the number of FoxP3+ CD4 T cells compared to DMSO control: twenty-fold
[1]; TGFβ 0.1 ng/ml
  increase in the number of FoxP3+ CD4 T cells compared to DMSO control: five-fold
[1]
  Treg differentiation (FoxP3 expression): dose-dependent effects; also recorded: enhanced Tregs
  Treg differentiation in the presence of mitoQ: no longer effective in enhancing Treg differentiation
[1]; listed as IsoalloLCA
  Treg differentiation (FoxP3 expression): enhanced FoxP3 expression
[1]; listed as iso-allo-LCA
  Treg differentiation (FoxP3 expression): potentiated Treg differentiation at low (0.01 or 0.1 ng/ml), but not at high (1 ng/ml) TGFβ concentration
[1]; isoalloLCA 20 μM, anti-TGF-β 10 μg/ml
  FoxP3 enhancement after pretreatment with anti-TGF-β antibody: pretreatment of cells with anti-TGF-β antibody prevented FoxP3 enhancement
[2]
  T effector cell proliferation with compound-treated cells: isoalloLCA-treated cells inhibited T effector cell proliferation in vitro
[3]
  Treg percentages at steady state and following anti-CD3 treatment: insufficient to enhance Treg percentages
[4]
  oxygen consumption rate (OCR): increased OCR, both in WT and CNS3-KO cells
FoxP3 promoter region
  H3K4 methylation: did not affect H3K4 methylation
  H3K27Ac levels at the FoxP3 promoter region: increased H3K27Ac levels at the FoxP3 promoter region
  histone acetyltransferase p300 recruitment: increased histone acetyltransferase p300 recruitment
FoxP3 mRNA
  FoxP3 mRNA expression: increased FoxP3 mRNA expression
[5]
  T cell differentiation into Th1 or Th2 cells: neither compound affected T cell differentiation into Th1 or Th2 cells
[6]
  RORγt expression: without affecting RORγt expression
CD4+ T cells
  T cell receptor (TCR)-mediated activation: do not significantly affect cell proliferation, cell viability, or T cell activation
CD4+ T cells; listed as IsoalloLCA
  T cell receptor (TCR)-mediated activation: did not impair
T cells; DCFDA, 20 μM
  cytoplasmic ROS: without affecting cytoplasmic ROS
T cells; MitoTracker, JC-1, 20 μM
  total mitochondrial mass and mitochondrial membrane potential: a modest, but significant, increase in total mitochondrial mass and mitochondrial membrane potential
T cells; mitoSOX
  mitochondrial ROS (mitoROS) production: increased production of mitochondrial ROS (mitoROS)
naïve CD4+ T cells
  cell proliferation: do not significantly affect cell proliferation; also recorded: reduced proliferation compared to DMSO control

## CC1=C(/C=C/C(C)=C/C=C/C(C)=C/C(=O)O)C(C)(C)CCC1 [RA, retinoic acid, reference compound]
[1]
  Treg differentiation in the presence of mitoQ: unaffected by mitoQ treatment
